The values below come from PubChem BioAssay AID445 (National Center for Advancing Translational Sciences (NCATS), 2006).

The list shows a part of the results. Further columns of the screen follow, without active or inactive calls. Compounds called inactive in the main read-out are mostly missing here. The note in brackets gives the kind of curve behind each potency; many fits are weak.

The nature of the assay: IkB Signaling. Particulars: ABC-DLBCL IkBa-CBG/CBR dual luciferase ratio (green luciferase fused to IkBa over red control in OCI-Ly3 lymphoma cells), 4 h. The essentials:
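Curves were fitted separately to fusion (green), unfused (red) and ratio luminescence, then classed by r2, magnitude and activity. Cells: OCI-Ly3, 4 h compound plus doxycycline at 37C; 10 uM MG-132 defined full response.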

The mark [1] stands for this setting: measured here: control luc red channel unless noted.

As to `COc1ccc(Cn2c(SCC(N)=O)nc3c(sc4ccccc43)c2=O)cc1`, the AC50 – broadly, the concentration at which the activity in the assay is half-maximal – runs as follows: (measured here: IkB-luc green channel) 39.8 µM [rising, single point]; (measured here: control luc red channel) 5.01 µM [rising, full curve].

With `Cc1cnc2c(c1SCC(=O)Nc1ccc(F)cc1F)c(=O)n(C)c(=O)n2C`, the concentration at half-maximal activity (AC50) under setting [1] is 39.8 µM [falling, single point].

As to `c1ccc(OCCSc2ncnc3nc[nH]c23)cc1`, the half-maximal activity concentration (AC50) under setting [1] was 12.6 µM [falling, partial curve].

For `COc1ccc(N(Cc2cccs2)C(=O)COc2ccc(C(C)C)cc2)cc1`, the AC50 under setting [1] was 12.6 µM [falling, partial curve].

As for `CN(C)c1ccc(CN(CC2CCCO2)C(=O)c2ccc(Br)cc2)cc1` (stereo not drawn), under setting [1], the AC50 was 39.8 µM [falling, single point].

Consider `Cc1ccc(-n2c(=O)c3ccc(C(=O)NCc4ccccc4Cl)cc3n(CC(=O)Nc3cccc(F)c3)c2=O)cc1`, for which, under setting [1], the AC50 is 10 µM [falling, partial curve].

Consider `Cc1cc(NC(=O)Cn2nc(C)n3cccc3c2=O)ccc1Br`, for which, under setting [1], the AC50 is 7.94 µM [falling, partial curve, poor fit].

As for `CCOC(=O)c1c(C)[nH]c(C(=O)OC/C(O)=C(\C#N)c2nc3ccccc3[nH]2)c1C`, the concentration at half-maximal activity (AC50) under setting [1] was 3.98 µM [falling, full curve].

As to `Cn1c(=O)n(-c2cccc(Cl)c2)c(=O)c2sc3ccccc3c21`, under setting [1], the AC50 was 15.8 µM [rising, single point].

Regarding `CCN(CC)CCCNC(=O)c1cc2c(-c3ccc(Cl)cc3)nn(C)c2s1`, the concentration at half-maximal activity (AC50) under setting [1] was 25.1 µM [rising, single point] [measured here: IkB-luc green channel].

Take `CCCCN1C(=O)CN(C2CCCCC2)C(=O)C1c1ccc(OC(C)C)c(OC)c1` (stereo not drawn): the AC50 under setting [1] was 39.8 µM [falling, partial curve, poor fit].

Regarding `Cc1cccc(-n2ncc(C(=O)NCc3ccccn3)c2C2CCN(C(=O)OC(C)(C)C)CC2)c1`, the AC50 under setting [1] was 15.8 µM [falling, partial curve].

Turning to `c1ccc2sc(-c3ccc4c(c3)OCO4)nc2c1`, the half-maximal activity concentration (AC50) under setting [1] is 15.8 µM [falling, partial curve].

Turning to `CCOc1ccc(Br)cc1CNCCSc1nnnn1-c1ccccc1`, the AC50 under setting [1] is 31.6 µM [falling, single point].

For the compound `CC(C)(C)OC(=O)N1CCC(c2c(C(=O)Nc3ccc4c(c3)OCCO4)cnn2-c2ccccc2)CC1`, under setting [1], the AC50 is 31.6 µM [falling, partial curve].

Take `COc1ccc(CNC(=O)c2cc3c(s2)-c2c(C)cccc2OC3)cc1`: under setting [1], the half-maximal activity concentration (AC50) is 7.94 µM [falling, partial curve].

For `Cc1ccc(C)c(NC(=O)C(=O)NCCc2csc3nc(-c4ccccc4C)nn23)c1`, the AC50 under setting [1] was 7.94 µM [falling, partial curve].

As for `COc1cccc(CNC(=O)CN2C(=O)COc3ccc(S(=O)(=O)Nc4ccccc4)cc32)c1`, the AC50 under setting [1] is 25.1 µM [falling, single point].

Regarding `COc1ccc(CNC(=O)C2CCN(C(=O)N3CC(C)Oc4ccc(C)cc43)CC2)cc1` (stereo not drawn), under setting [1], the AC50 is 12.6 µM [falling, partial curve].

For `O=C(Nc1ccc(Cl)cc1)c1cc(S(=O)(=O)N2CCc3ccccc32)ccc1F`, the AC50 under setting [1] is 3.98 µM [falling, full curve].

Turning to `CCOc1ccc(C(=O)Nc2cc(-c3cn4cccnc4n3)ccc2C)cc1OCC`, the AC50 under setting [1] is 3.16 µM [rising, partial curve].

In the case of `Cc1cc(C)cc(NC(=O)C2CCC(CNS(=O)(=O)c3ccc4c(c3)C(C)(C)C(=O)N4C)CC2)c1` (stereo not drawn), the AC50 under setting [1] is 25.1 µM [falling, partial curve].

In the case of `CCOC(=O)C1CCCN(Cc2nc(N)nc(Nc3ccc(OC)cc3)n2)C1` (stereo not drawn), under setting [1], the AC50 is 12.6 µM [falling, partial curve].

As for `COc1ccc(C)cc1NC(=O)CSc1ccc(-c2ccccn2)nn1`, under setting [1], the AC50 is 15.8 µM [falling, single point].

Regarding `COc1ccccc1C(=O)Nc1c(C(=O)N(C)c2ccccc2)sc2nc(C)cc(C)c12`, under setting [1], the AC50 is 25.1 µM [falling, single point].

For `Cc1nn2c(=O)cc(COC(=O)c3cccc(NC(=O)c4ccc(C(C)(C)C)cc4)c3)nc2s1`, under setting [1], the AC50 is 3.16 µM [falling, full curve].

Consider `Cc1ccc2[nH]c(=O)c3cc(C(=O)N(C)Cc4ccco4)sc3c2c1`, for which the AC50 under setting [1] was 39.8 µM [falling, single point].

`O=C(COC(=O)c1cccc(NC(=O)c2ccc(Br)cc2)c1)c1ccc(Br)cc1`: the AC50 under setting [1] is 10 µM [falling, partial curve].

`COc1cccc(C(=O)Nc2ccc3nc(N4CCC(C)CC4)cc(C)c3c2)c1`: under setting [1], the AC50 was 7.94 µM [falling, partial curve].

For `COc1ccc(C(=O)CCC(=O)Nc2ccc(OC)c(Cl)c2)cc1`, the AC50 under setting [1] is 3.98 µM [rising, full curve].

With `CCOC(=O)c1[nH]c2c(c1Cc1ccccc1OC)C(=O)CC(c1ccc(OCC)cc1)C2` (stereo not drawn), the AC50 under setting [1] was 10 µM [falling, partial curve].

Regarding `CCOC(=O)c1c(C)oc2nc(C)nc(NCCc3ccc(SC)cc3)c12`, under setting [1], the AC50 was 20 µM [falling, partial curve, poor fit].

Take `CC(C)NC(=O)c1ccccc1NC(=O)c1nsc2ccccc12`: the AC50 under setting [1] was 2.51 µM [rising, full curve].

Take `CCN(CC)S(=O)(=O)c1ccc2c(c1)N(CC(=O)Nc1ccc(C)cc1C)C(=O)C1CCCN21` (stereo not drawn): the AC50 under setting [1] was 0.0398 µM [rising, full curve].

Turning to `O=C(NC(Cc1ccccc1)C(=O)OCC(=O)N1CCc2ccccc21)c1ccco1` (stereo not drawn), under setting [1], the AC50 is 12.6 µM [falling, partial curve].

As to `O=C(Cc1ccc(Cl)cc1)NCC(c1cccs1)S(=O)(=O)c1ccc(F)cc1` (stereo not drawn), the AC50 under setting [1] is 10 µM [falling, partial curve].

Regarding `Cc1cccc(N2CCN(CCCNC(=O)c3nnc(Cc4c(F)cccc4Cl)o3)CC2C)c1` (stereo not drawn), the concentration at half-maximal activity (AC50) under setting [1] was 25.1 µM [falling, single point].

For the compound `COc1ccc(Cl)c(NC(=O)Cn2nnc(-c3ccccc3N)n2)c1`, the AC50 under setting [1] is 10 µM [falling, partial curve].

With `O=C(NCCc1ccccc1)c1ccc2c(c1)N(Cc1ccccc1)C(=O)c1ccccc1S2(=O)=O`, the AC50 under setting [1] was 15.8 µM [rising, partial curve].

Consider `COc1cccc(OCc2nc3ccccc3[nH]2)c1`, for which the AC50 under setting [1] is 7.94 µM [falling, partial curve].

Consider `O=C(OCC(=O)N1CCN(C(=O)c2ccco2)CC1)c1ccccc1OCc1ccc(Cl)cc1`, for which the AC50 under setting [1] was 20 µM [falling, partial curve].

With `O=C(NCCc1ccccc1)C1CCN(Cc2cc3ccccc3n2Cc2cccc(Cl)c2)CC1`, the AC50 under setting [1] is 10 µM [falling, partial curve].

As for `COc1ccc(CNC(=O)c2cc(=O)[nH]c3ccc(S(=O)(=O)N4CCCC4)cc23)c(OC)c1`, the AC50 under setting [1] is 1.26 µM [falling, full curve, poor fit].

In the case of `COc1ccc(Cl)cc1NC(=O)c1ccc2c(c1)CCN2S(C)(=O)=O`, the AC50 under setting [1] was 39.8 µM [falling, single point].

`COc1cccc(Nc2sc(C(=O)c3ccc(Cl)cc3)c(N)c2C(=O)NCc2ccc(C)cc2)c1`: under setting [1], the AC50 is 15.8 µM [falling, partial curve].

Regarding `CCOC(=O)CNc1ncnc2nc[nH]c12`, the AC50 under setting [1] was 25.1 µM [falling, partial curve].

Consider `Cc1c(Cl)cccc1NC(=O)C1CCCN(c2ncnc3onc(C)c23)C1` (stereo not drawn), for which the AC50 under setting [1] was 39.8 µM [falling, single point].

As to `CCCCOc1ccc(NC2=NC3(CCCCC3)N=C(N)N2)cc1`, the AC50 under setting [1] is 20 µM [falling, partial curve].

As for `O=C(NCc1ccccc1Cl)c1ccc2c(c1)N(Cc1ccccc1)C(=O)CS2`, the AC50 under setting [1] was 10 µM [falling, partial curve].

Turning to `CC1CCN(S(=O)(=O)c2ccc3c(c2)c(=O)c(C(=O)NC(C)c2ccccc2)cn3C)CC1` (stereo not drawn), the AC50 under setting [1] was 12.6 µM [falling, partial curve].

Turning to `Cc1ccc(Cl)cc1N1CCN(C(=O)c2ccc3c(c2)CCN3S(=O)(=O)c2ccccc2)CC1`, the concentration at half-maximal activity (AC50) under setting [1] was 12.6 µM [falling, partial curve].

For the compound `Cc1ccc(-c2nnc(Nc3cccc(O)c3)c3ccccc23)cc1S(=O)(=O)NCC1CCCO1` (stereo not drawn), the AC50 under setting [1] is 20 µM [falling, partial curve].

On to `CC(=O)c1cccc(NC(=O)Nc2nnc(N3CCCC3)s2)c1`, for which the AC50 under setting [1] is 31.6 µM [falling, single point].

Turning to `CCOC(=O)c1c(C)n(-c2ccccc2)c2ccc(OC(=O)c3cccc(C)c3)cc12`, under setting [1], the AC50 is 0.631 µM [rising, full curve].

For `COc1cccc(CNC(=O)c2ccc3c(=O)n4nc(Nc5ccccc5)sc4nc3c2)c1`, under setting [1], the AC50 was 20 µM [falling, partial curve].

With `CCCOc1ccc(CNC(=O)c2ccc(C)c(-n3c(C)nc4cccnc43)c2)cc1`, under setting [1], the AC50 is 31.6 µM [falling, single point].

`COc1ccc2cc(-c3nnc(Nc4ccccc4)s3)c(=O)oc2c1`: under setting [1], the AC50 is 7.94 µM [falling, partial curve].

`CN(Cc1ccccc1)S(=O)(=O)c1ccc2[nH]c3c(c2c1)CCCCC3`: the AC50 under setting [1] is 12.6 µM [falling, partial curve].

Regarding `CCN1CCN(C(c2ccc(C)cc2)c2c(O)cc(C)n(Cc3ccco3)c2=O)CC1` (stereo not drawn), the AC50 under setting [1] was 3.16 µM [falling, partial curve].

As for `COc1ccc(-c2cc3nc(C)c(CCC(=O)N4CCN(c5ccc(F)cc5)CC4)c(C)n3n2)c(OC)c1`, the AC50 under setting [1] is 0.794 µM [falling, full curve].

Take `Cc1ccc(Nc2nc3ccccc3c3nnc(C)n23)c(C)c1`: the AC50 under setting [1] was 5.01 µM [falling, partial curve].

With `Nn1c(SCC(=O)Nc2ccc(Oc3ccccc3)cc2)nnc1C1CC1`, the AC50 under setting [1] was 20 µM [falling, single point].
